For test [1], the target named is endogenous MDM2 of OVCAR3 cells (human (endogenous in OVCAR3)) (UniProt Q00987). The test is described as follows: co-IP; endogenous proteins from OVCAR3 cells; immunoprecipitation with an anti-MDM2 antibody.
Test [2] addresses flag-tagged MDM2 (UniProt Q00987). Put plainly: co-IP; Flag-MDM2 and myc-ITPKA transfected into OVCAR3 cells, harvested after 48 hours in RIPA buffer; immunoprecipitation with an anti-Flag antibody, protein A beads, western blot. A general note: A western blot detects proteins with antibodies after separation by electrophoresis.

Chains of the proteins cited; added tags and fusions are not shown. Lines headed by an entry give the natural chain unless they say otherwise; changes in a name come on top. A line that says so, or that is headed by a name, gives the form on record, which may keep a tag or linker.
flag-tagged MDM2 (Q00987, form named): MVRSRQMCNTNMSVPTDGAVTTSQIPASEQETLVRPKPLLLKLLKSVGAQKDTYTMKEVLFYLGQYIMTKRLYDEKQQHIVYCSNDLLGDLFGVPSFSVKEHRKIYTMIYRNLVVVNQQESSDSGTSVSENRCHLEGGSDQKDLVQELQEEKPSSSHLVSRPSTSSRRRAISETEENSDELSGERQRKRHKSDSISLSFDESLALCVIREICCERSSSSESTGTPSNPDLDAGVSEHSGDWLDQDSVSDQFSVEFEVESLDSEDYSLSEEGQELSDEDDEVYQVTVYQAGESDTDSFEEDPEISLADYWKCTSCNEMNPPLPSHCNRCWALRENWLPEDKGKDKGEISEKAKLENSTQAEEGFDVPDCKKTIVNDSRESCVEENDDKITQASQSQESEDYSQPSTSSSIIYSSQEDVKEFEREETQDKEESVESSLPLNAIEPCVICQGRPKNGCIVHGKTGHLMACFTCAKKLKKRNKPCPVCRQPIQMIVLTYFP
UniProt P23677: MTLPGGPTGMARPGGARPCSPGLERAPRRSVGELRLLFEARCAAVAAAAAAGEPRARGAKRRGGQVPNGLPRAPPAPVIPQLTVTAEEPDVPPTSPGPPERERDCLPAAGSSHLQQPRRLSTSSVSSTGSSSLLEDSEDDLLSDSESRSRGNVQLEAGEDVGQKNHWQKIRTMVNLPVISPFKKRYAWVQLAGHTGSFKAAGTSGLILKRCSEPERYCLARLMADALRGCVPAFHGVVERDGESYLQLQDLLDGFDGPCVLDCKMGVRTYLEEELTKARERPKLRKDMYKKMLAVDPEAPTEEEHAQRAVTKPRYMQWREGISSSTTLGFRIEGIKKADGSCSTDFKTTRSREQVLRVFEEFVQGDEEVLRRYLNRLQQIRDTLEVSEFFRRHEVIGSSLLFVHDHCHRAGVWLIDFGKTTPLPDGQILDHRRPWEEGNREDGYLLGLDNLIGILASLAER

Among the data in publication PMC8109125 are binding values, retold here.

No constants are given. Whether binding was seen depends on the method and setting. In cells and extracts the contact can be indirect. Some binding calls cover weakened binding; strength is not graded here.

As for “Inositol-trisphosphate 3-kinase A (ITPKA), endogenous in OVCAR3 cells (from UniProt P23677 1-461)”, in test [1], the binding entry was “binds”.

For the substance “myc-tagged ITPKA (from UniProt P23677 1-461)”, the binding result in test [2] was “binds”.
